Test results from patent US20260139263A1 (IOWA STATE UNIVERSITY RESEARCH FOUNDATION, published 2026).

Tests used:
Test in all cases: GST pull-down
[1] = biological target: rice NF-YC4 homolog Os2g07450 (Oryza sativa (rice))
[2] = biological target: rice NF-YC4 homolog Os3g14669 (Oryza sativa (rice))
[3] = biological target: rice NF-YC4 homolog Os6g45640 (Oryza sativa (rice))
[4] = biological target: soybean NF-YC4 homolog Glyma04g37291 (Glycine max (soybean))
[5] = biological target: soybean NF-YC4 homolog Glyma06g17780 (Glycine max (soybean))

Measured: binding

B1: GST-QQS fusion protein (protein, not shown: a dimerising Fc or GST)
chain: MKTNREQEIYVERSFKPNNSTIQNLMDIERFILPHTSTSGVARLKMRVISWVGLQFYNY
binds: all assays above

No constants are given. Whether binding was seen depends on the method and setting. Binding seen in cells or lysates may run through a third protein. Binding can be weak; no strength is given. Sequences can lack the tags named with a protein.
